Eight molecules from paper PMC13304329 can be followed below.

Protein sequences, listed by entry. Tags and fused reporters are not part of them.
UniProt Q5S007: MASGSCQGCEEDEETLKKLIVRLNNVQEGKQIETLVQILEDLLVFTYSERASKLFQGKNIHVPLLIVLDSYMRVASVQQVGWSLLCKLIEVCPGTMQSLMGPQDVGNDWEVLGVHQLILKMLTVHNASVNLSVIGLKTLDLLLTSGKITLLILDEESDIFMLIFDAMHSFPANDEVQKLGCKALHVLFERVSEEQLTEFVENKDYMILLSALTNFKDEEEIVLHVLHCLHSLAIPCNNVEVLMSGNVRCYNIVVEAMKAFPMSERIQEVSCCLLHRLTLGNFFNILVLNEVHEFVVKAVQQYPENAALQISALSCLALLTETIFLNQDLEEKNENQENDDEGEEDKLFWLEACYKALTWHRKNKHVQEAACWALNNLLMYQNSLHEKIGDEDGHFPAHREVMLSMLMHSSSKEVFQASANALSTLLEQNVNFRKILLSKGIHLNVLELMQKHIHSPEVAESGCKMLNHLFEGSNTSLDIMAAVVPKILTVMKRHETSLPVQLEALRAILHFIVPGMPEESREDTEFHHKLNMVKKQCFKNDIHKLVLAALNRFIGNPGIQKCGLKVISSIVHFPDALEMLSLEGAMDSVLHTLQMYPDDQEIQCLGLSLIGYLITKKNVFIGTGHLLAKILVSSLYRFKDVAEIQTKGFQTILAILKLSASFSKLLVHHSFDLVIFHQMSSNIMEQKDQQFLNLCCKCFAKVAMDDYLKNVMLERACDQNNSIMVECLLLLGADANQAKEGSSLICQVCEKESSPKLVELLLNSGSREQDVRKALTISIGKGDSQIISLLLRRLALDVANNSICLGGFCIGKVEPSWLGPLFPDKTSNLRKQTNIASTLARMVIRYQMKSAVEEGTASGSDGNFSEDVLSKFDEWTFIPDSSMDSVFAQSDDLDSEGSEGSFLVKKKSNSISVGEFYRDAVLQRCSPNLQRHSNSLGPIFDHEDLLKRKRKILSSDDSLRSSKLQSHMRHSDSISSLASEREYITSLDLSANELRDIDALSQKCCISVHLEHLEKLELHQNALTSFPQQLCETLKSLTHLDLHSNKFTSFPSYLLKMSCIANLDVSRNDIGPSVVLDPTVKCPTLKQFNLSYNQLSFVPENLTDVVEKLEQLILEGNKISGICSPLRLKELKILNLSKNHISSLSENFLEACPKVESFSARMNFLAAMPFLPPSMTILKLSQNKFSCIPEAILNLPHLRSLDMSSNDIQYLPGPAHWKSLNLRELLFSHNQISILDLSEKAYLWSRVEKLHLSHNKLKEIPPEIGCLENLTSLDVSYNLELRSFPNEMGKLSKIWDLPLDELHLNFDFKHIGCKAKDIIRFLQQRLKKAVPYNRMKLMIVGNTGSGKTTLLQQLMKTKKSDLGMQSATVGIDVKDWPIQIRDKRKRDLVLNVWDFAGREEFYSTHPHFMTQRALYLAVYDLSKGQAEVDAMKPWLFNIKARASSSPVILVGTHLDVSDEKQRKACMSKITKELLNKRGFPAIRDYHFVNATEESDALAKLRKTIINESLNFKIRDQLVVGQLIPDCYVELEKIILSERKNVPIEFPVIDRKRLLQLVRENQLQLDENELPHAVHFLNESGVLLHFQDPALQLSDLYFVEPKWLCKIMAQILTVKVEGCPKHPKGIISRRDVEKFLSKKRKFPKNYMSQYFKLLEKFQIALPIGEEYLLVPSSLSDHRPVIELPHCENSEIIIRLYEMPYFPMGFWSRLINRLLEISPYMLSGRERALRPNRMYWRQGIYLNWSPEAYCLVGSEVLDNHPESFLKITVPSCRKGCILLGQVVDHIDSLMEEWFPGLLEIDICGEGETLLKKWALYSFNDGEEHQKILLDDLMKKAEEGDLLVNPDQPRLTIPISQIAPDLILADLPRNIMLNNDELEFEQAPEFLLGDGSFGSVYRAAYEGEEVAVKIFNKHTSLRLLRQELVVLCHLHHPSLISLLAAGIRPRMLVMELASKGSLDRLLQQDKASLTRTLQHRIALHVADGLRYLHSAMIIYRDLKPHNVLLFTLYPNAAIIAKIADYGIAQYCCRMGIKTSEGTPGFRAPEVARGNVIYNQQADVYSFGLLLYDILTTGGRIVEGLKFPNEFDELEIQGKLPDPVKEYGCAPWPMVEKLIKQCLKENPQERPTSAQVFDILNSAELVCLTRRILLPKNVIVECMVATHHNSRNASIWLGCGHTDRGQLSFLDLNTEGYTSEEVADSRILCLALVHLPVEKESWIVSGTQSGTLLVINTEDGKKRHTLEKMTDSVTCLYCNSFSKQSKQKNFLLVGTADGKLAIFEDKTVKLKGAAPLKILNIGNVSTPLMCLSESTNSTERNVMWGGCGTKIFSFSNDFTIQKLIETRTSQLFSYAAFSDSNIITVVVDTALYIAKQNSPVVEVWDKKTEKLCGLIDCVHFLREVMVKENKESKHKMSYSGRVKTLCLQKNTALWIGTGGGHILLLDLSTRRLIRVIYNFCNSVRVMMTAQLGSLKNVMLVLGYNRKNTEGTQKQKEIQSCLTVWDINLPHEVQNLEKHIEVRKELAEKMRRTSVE

No constants are given. Whether binding was seen depends on the method and setting. In cells and extracts the contact can be indirect. These calls come from enrichment with a bait or labelling near it, and not all partners need be listed.

The labels stand for the following.
B1: Golgin subfamily A member 5 (protein, UniProt Q8TBA6 1-731)
chain: MSWFVDLAGKAEDLLNRVDQGAATALSRKDNASNIYSKNTDYTELHQQNTDLIYQTGPKSTYISSAADNIRNQKATILAGTANVKVGSRTPVEASHPVENASVPRPSSHFVRRKKSEPDDELLFDFLNSSQKEPTGRVEIRKEKGKTPVFQSSQTSSVSSVNPSVTTIKTIEENSFGSQTHEAASNSDSSHEGQEESSKENVSSNAACPDHTPTPNDDGKSHELSNLRLENQLLRNEVQSLNQEMASLLQRSKETQEELNKARARVEKWNADHSKSDRMTRGLRAQVDDLTEAVAAKDSQLAVLKVRLQEADQLLSTRTEALEALQSEKSRIMQDQSEGNSLQNQALQTFQERLHEADATLKREQESYKQMQSEFAARLNKVEMERQNLAEAITLAERKYSDEKKRVDELQQQVKLYKLNLESSKQELIDYKQKATRILQSKEKLINSLKEGSGFEGLDSSTASSMELEELRHEKEMQREEIQKLMGQIHQLRSELQDMEAQQVNEAESAREQLQDLHDQIAGQKASKQELETELERLKQEFHYIEEDLYRTKNTLQSRIKDRDEEIQKLRNQLTNKTLSNSSQSELENRLHQLTETLIQKQTMLESLSTEKNSLVFQLERLEQQMNSASGSSSNGSSINMSGIDNGEGTRLRNVPVLFNDTETNLAGMYGKVRKAASSIDQFSIRLGIFLRRYPIARVFVIIYMALLHLWVMIVLLTYTPEMHHDQPYGK
B2: C-Jun-amino-terminal kinase-interacting protein 4 (protein, UniProt O60271 1-1321)
chain: MELEDGVVYQEEPGGSGAVMSERVSGLAGSIYREFERLIGRYDEEVVKELMPLVVAVLENLDSVFAQDQEHQVELELLRDDNEQLITQYEREKALRKHAEEKFIEFEDSQEQEKKDLQTRVESLESQTRQLELKAKNYADQISRLEEREAELKKEYNALHQRHTEMIHNYMEHLERTKLHQLSGSDQLESTAHSRIRKERPISLGIFPLPAGDGLLTPDAQKGGETPGSEQWKFQELSQPRSHTSLKVSNSPEPQKAVEQEDELSDVSQGGSKATTPASTANSDVATIPTDTPLKEENEGFVKVTDAPNKSEISKHIEVQVAQETRNVSTGSAENEEKSEVQAIIESTPELDMDKDLSGYKGSSTPTKGIENKAFDRNTESLFEELSSAGSGLIGDVDEGADLLGMGREVENLILENTQLLETKNALNIVKNDLIAKVDELTCEKDVLQGELEAVKQAKLKLEEKNRELEEELRKARAEAEDARQKAKDDDDSDIPTAQRKRFTRVEMARVLMERNQYKERLMELQEAVRWTEMIRASRENPAMQEKKRSSIWQFFSRLFSSSSNTTKKPEPPVNLKYNAPTSHVTPSVKKRSSTLSQLPGDKSKAFDFLSEETEASLASRREQKREQYRQVKAHVQKEDGRVQAFGWSLPQKYKQVTNGQGENKMKNLPVPVYLRPLDEKDTSMKLWCAVGVNLSGGKTRDGGSVVGASVFYKDVAGLDTEGSKQRSASQSSLDKLDQELKEQQKELKNQEELSSLVWICTSTHSATKVLIIDAVQPGNILDSFTVCNSHVLCIASVPGARETDYPAGEDLSESGQVDKASLCGSMTSNSSAETDSLLGGITVVGCSAEGVTGAATSPSTNGASPVMDKPPEMEAENSEVDENVPTAEEATEATEGNAGSAEDTVDISQTGVYTEHVFTDPLGVQIPEDLSPVYQSSNDSDAYKDQISVLPNEQDLVREEAQKMSSLLPTMWLGAQNGCLYVHSSVAQWRKCLHSIKLKDSILSIVHVKGIVLVALADGTLAIFHRGVDGQWDLSNYHLLDLGRPHHSIRCMTVVHDKVWCGYRNKIYVVQPKAMKIEKSFDAHPRKESQVRQLAWVGDGVWVSIRLDSTLRLYHAHTYQHLQDVDIEPYVSKMLGTGKLGFSFVRITALMVSCNRLWVGTGNGVIISIPLTETNKTSGVPGNRPGSVIRVYGDENSDKVTPGTFIPYCSMAHAQLCFHGHRDAVKFFVAVPGQVISPQSSSSGTDLTGDKAGPSAQEPGSQTPLKSMLVISGGEGYIDFRMGDEGGESELLGEDLPLEPSVTKAERSHLIVWQVMYGNE
B3: Carboxypeptidase D (enzyme, UniProt O75976 32-1380)
chain: AHIKKAEATTTTTSAGAEAAEGQFDRYYHEEELESALREAAAAGLPGLARLFSIGRSVEGRPLWVLRLTAGLGSLIPEGDAGPDAAGPDAAGPLLPGRPQVKLVGNMHGDETVSRQVLIYLARELAAGYRRGDPRLVRLLNTTDVYLLPSLNPDGFERAREGDCGFGDGGPSGASGRDNSRGRDLNRSFPDQFSTGEPPALDEVPEVRALIEWIRRNKFVLSGNLHGGSVVASYPFDDSPEHKATGIYSKTSDDEVFKYLAKAYASNHPIMKTGEPHCPGDEDETFKDGITNGAHWYDVEGGMQDYNYVWANCFEITLELSCCKYPPASQLRQEWENNRESLITLIEKVHIGVKGFVKDSITGSGLENATISVAGINHNITTGRFGDFYRLLVPGTYNLTVVLTGYMPLTVTNVVVKEGPATEVDFSLRPTVTSVIPDTTEAVSTASTVAIPNILSGTSSSYQPIQPKDFHHHHFPDMEIFLRRFANEYPNITRLYSLGKSVESRELYVMEISDNPGVHEPGEPEFKYIGNMHGNEVVGRELLLNLIEYLCKNFGTDPEVTDLVHNTRIHLMPSMNPDGYEKSQEGDSISVIGRNNSNNFDLNRNFPDQFVQITDPTQPETIAVMSWMKSYPFVLSANLHGGSLVVNYPFDDDEQGLATYSKSPDDAVFQQIALSYSKENSQMFQGRPCKNMYPNEYFPHGITNGASWYNVPGGMQDWNYLQTNCFEVTIELGCVKYPLEKELPNFWEQNRRSLIQFMKQVHQGVRGFVLDATDGRGILNATISVAEINHPVTTYKTGDYWRLLVPGTYKITASARGYNPVTKNVTVKSEGAIQVNFTLVRSSTDSNNESKKGKGASSSTNDASDPTTKEFETLIKDLSAENGLESLMLRSSSNLALALYRYHSYKDLSEFLRGLVMNYPHITNLTNLGQSTEYRHIWSLEISNKPNVSEPEEPKIRFVAGIHGNAPVGTELLLALAEFLCLNYKKNPAVTQLVDRTRIVIVPSLNPDGRERAQEKDCTSKIGQTNARGKDLDTDFTNNASQPETKAIIENLIQKQDFSLSVALDGGSMLVTYPYDKPVQTVENKETLKHLASLYANNHPSMHMGQPSCPNKSDENIPGGVMRGAEWHSHLGSMKDYSVTYGHCPEITVYTSCCYFPSAARLPSLWADNKRSLLSMLVEVHKGVHGFVKDKTGKPISKAVIVLNEGIKVQTKEGGYFHVLLAPGVHNIIAIADGYQQQHSQVFVHHDAASSVVIVFDTDNRIFGLPRELVVTVSGATMSALILTACIIWCICSIKSNRHKDGFHRLRQHHDEYEDEIRMMSTGSKKSLLSHEFQDETDTEEETLYSSKH
B4: Syntaxin-5 (protein, UniProt Q13190 1-355)
chain: MIPRKRYGSKNTDQGVYLGLSKTQVLSPATAGSSSSDIAPLPPPVTLVPPPPDTMSCRDRTQEFLSACKSLQTRQNGIQTNKPALRAVRQRSEFTLMAKRIGKDLSNTFAKLEKLTILAKRKSLFDDKAVEIEELTYIIKQDINSLNKQIAQLQDFVRAKGSQSGRHLQTHSNTIVVSLQSKLASMSNDFKSVLEVRTENLKQQRSRREQFSRAPVSALPLAPNHLGGGAVVLGAESHASKDVAIDMMDSRTSQQLQLIDEQDSYIQSRADTMQNIESTIVELGSIFQQLAHMVKEQEETIQRIDENVLGAQLDVEAAHSEILKYFQSVTSNRWLMVKIFLILIVFFIIFVVFLA
B5: Rab11 family-interacting protein 5 (protein, UniProt Q9BXF6 1-653)
chain: MALVRGAEPAAGPSRWLPTHVQVTVLRARGLRGKSSGAGSTSDAYTVIQVGREKYSTSVVEKTHGCPEWREECSFELPPGALDGLLRAQEADAGPAPWAASSAAACELVLTTMHRSLIGVDKFLGQATVALDEVFGAGRAQHTQWYKLHSKPGKKEKERGEIEVTIQFTRNNLSASMFDLSMKDKPRSPFSKIRDKMKGKKKYDLESASAILPSSAIEDPDLGSLGKMGKAKGFFLRNKLRKSSLTQSNTSLGSDSTLSSASGSLAYQGPGAELLTRSPSRSSWLSTEGGRDSAQSPKLFTHKRTYSDEANQMRVAPPRALLDLQGHLDAASRSSLCVNGSHIYNEEPQGPVRHRSSISGSLPSSGSLQAVSSRFSEEGPRSTDDTWPRGSRSNSSSEAVLGQEELSAQAKVLAPGASHPGEEEGARLPEGKPVQVATPIVASSEAVAEKEGARKEERKPRMGLFHHHHQGLSRSELGRRSSLGEKGGPILGASPHHSSSGEEKAKSSWFGLREAKDPTQKPSPHPVKPLSAAPVEGSPDRKQSRSSLSIALSSGLEKLKTVTSGSIQPVTQAPQAGQMVDTKRLKDSAVLDQSAKYYHLTHDELISLLLQRERELSQRDEHVQELESYIDRLLVRIMETSPTLLQIPPGPPK
B6: Rho GTPase-activating protein 1 (protein, UniProt Q07960 1-439)
chain: MDPLSELQDDLTLDDTSEALNQLKLASIDEKNWPSDEMPDFPKSDDSKSSSPELVTHLKWDDPYYDIARHQIVEVAGDDKYGRKIIVFSACRMPPSHQLDHSKLLGYLKHTLDQYVESDYTLLYLHHGLTSDNKPSLSWLRDAYREFDRKYKKNIKALYIVHPTMFIKTLLILFKPLISFKFGQKIFYVNYLSELSEHVKLEQLGIPRQVLKYDDFLKSTQKSPATAPKPMPPRPPLPNQQFGVSLQHLQEKNPEQEPIPIVLRETVAYLQAHALTTEGIFRRSANTQVVREVQQKYNMGLPVDFDQYNELHLPAVILKTFLRELPEPLLTFDLYPHVVGFLNIDESQRVPATLQVLQTLPEENYQVLRFLTAFLVQISAHSDQNKMTNTNLAVVFGPNLLWAKDAAITLKAINPINTFTKFLLDHQGELFPSPDPSGL
B7: Lamina-associated polypeptide 2, isoforms beta/gamma; Thymopoietin; Thymopentin (protein, UniProt P42167 1-454)
chain: MPEFLEDPSVLTKDKLKSELVANNVTLPAGEQRKDVYVQLYLQHLTARNRPPLPAGTNSKGPPDFSSDEEREPTPVLGSGAAAAGRSRAAVGRKATKKTDKPRQEDKDDLDVTELTNEDLLDQLVKYGVNPGPIVGTTRKLYEKKLLKLREQGTESRSSTPLPTISSSAENTRQNGSNDSDRYSDNEEDSKIELKLEKREPLKGRAKTPVTLKQRRVEHNQSYSQAGITETEWTSGSSKGGPLQALTRESTRGSRRTPRKRVETSEHFRIDGPVISESTPIAETIMASSNESLVVNRVTGNFKHASPILPITEFSDIPRRAPKKPLTRAEVGEKTEERRVERDILKEMFPYEASTPTGISASCRRPIKGAAGRPLELSDFRMEESFSSKYVPKYVPLADVKSEKTKKGRSIPVWIKILLFVVVAVFLFLVYQAMETNQVNPFSNFLHVDPRKSN
B8: Septin-6 (protein, UniProt Q14141 1-434)
chain: MAATDIARQVGEGCRTVPLAGHVGFDSLPDQLVNKSVSQGFCFNILCVGETGLGKSTLMDTLFNTKFEGEPATHTQPGVQLQSNTYDLQESNVRLKLTIVSTVGFGDQINKEDSYKPIVEFIDAQFEAYLQEELKIRRVLHTYHDSRIHVCLYFIAPTGHSLKSLDLVTMKKLDSKVNIIPIIAKADAISKSELTKFKIKITSELVSNGVQIYQFPTDDESVAEINGTMNAHLPFAVIGSTEELKIGNKMMRARQYPWGTVQVENEAHCDFVKLREMLIRVNMEDLREQTHTRHYELYRRCKLEEMGFKDTDPDSKPFSLQETYEAKRNEFLGELQKKEEEMRQMFVQRVKEKEAELKEAEKELHEKFDRLKKLHQDEKKKLEDKKKSLDDEVNAFKQRKTAAELLQSQGSQAGGSQTLKRDKEKKNNPWLCTE

For the experiment, the target named is miniTurbo-LRRK2 (human) (UniProt Q5S007). The experiment can be described thus: proximity labelling; mT-LRRK2 co-expressed with HA-RAB29 against empty pcDNA3.0 vector; biotin labelling, Strep-Tactin enrichment, LC-MSMS, LFQ with FDR-controlled t test.
For B1, the binding entry is given as “binds”. On to B2, for which the binding entry is on record as “binds”. With B3 the entry was “binds”; with B4, “binds”.

For the molecule B5, the binding entry is on record as “binds”.

As for B6, the binding result was “binds”. In the case of B7 it was “binds”; in that of B8, “binds”.
